Assay results from PMC7045432.
No constants are given. Whether binding was seen depends on the method and setting. Binding seen in cells or lysates may run through a third protein. Some binding calls cover weakened binding; strength is not graded here.

The chains behind the UniProt entries cited, without tags or fusion partners.
UniProt Q14152: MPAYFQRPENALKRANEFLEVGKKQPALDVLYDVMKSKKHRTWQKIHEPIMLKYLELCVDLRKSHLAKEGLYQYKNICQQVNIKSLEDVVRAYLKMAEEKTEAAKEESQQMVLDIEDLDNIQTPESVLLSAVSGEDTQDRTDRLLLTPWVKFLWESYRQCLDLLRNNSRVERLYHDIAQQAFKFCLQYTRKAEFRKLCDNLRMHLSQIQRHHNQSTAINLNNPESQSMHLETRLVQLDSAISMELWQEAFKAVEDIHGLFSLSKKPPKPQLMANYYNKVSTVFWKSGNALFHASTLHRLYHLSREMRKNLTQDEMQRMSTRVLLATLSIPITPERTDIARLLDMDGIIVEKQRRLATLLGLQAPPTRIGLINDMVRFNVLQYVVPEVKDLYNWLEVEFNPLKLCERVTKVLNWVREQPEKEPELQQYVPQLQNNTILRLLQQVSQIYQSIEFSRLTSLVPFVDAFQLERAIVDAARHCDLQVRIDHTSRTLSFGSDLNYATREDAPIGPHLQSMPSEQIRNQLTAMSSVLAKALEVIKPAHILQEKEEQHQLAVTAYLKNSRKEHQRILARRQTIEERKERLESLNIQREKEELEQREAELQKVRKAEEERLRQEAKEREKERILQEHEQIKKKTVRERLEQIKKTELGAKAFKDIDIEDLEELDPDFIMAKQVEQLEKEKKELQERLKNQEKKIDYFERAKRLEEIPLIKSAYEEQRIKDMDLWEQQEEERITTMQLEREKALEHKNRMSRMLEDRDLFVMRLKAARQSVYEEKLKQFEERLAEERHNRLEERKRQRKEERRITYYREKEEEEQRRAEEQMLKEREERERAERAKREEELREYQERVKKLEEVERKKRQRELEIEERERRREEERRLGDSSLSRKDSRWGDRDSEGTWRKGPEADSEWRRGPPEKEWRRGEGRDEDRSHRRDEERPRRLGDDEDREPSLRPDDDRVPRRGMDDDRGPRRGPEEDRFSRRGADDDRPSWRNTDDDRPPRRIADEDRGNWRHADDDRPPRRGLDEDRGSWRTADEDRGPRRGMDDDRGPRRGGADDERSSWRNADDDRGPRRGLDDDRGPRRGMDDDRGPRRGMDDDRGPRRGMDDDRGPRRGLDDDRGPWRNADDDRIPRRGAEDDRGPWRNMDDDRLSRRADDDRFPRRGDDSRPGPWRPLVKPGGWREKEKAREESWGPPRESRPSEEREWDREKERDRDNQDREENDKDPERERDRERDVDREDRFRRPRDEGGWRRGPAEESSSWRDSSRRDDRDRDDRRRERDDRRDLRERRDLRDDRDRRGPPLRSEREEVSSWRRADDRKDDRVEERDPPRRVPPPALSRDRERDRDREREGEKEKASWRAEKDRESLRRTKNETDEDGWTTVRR
UniProt Q6P6C2: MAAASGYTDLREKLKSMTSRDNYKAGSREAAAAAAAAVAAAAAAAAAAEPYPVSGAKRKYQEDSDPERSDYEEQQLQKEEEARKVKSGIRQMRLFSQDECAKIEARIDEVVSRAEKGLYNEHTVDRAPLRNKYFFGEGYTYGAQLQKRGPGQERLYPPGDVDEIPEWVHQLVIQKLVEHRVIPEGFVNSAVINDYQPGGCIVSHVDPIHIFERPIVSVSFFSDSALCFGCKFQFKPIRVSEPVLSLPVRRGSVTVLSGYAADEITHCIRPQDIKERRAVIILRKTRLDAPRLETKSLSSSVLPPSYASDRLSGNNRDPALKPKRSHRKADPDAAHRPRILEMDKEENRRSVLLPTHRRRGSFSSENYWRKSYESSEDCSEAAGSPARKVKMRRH
UniProt Q9BYJ9: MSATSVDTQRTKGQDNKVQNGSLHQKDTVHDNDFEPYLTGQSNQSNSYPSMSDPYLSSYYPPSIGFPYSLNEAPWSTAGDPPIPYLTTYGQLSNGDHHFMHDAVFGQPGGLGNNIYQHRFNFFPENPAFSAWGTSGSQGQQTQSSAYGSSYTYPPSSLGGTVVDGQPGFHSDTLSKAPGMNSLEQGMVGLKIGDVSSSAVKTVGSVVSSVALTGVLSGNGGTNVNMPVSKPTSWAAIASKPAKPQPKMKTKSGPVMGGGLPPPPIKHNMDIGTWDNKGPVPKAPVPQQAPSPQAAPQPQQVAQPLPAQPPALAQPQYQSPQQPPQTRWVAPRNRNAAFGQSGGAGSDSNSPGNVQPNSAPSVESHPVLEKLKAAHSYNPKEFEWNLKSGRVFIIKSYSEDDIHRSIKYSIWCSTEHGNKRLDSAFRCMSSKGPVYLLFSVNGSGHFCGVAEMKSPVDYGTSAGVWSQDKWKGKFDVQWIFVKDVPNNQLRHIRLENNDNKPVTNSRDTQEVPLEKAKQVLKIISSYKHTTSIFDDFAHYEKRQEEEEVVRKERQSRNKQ
UniProt Q15717: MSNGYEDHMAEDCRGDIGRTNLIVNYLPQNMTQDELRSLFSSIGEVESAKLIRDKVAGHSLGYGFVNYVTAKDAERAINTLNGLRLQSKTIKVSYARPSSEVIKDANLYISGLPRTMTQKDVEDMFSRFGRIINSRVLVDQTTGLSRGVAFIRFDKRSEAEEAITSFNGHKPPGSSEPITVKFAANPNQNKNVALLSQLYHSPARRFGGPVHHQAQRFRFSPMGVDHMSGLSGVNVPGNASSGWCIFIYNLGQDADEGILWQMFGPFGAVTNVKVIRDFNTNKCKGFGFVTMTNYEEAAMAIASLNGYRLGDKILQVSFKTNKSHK

Key:
[1] = target: Eukaryotic translation initiation factor 3 subunit A (eIF3a) (human (endogenous in A549)) (UniProt Q14152); experiment: co-IP; endogenous co-IP from A549 cell lysates, immunoprecipitation with an antibody against either partner, western blot; for YTHDF1/2 with YTHDF3 also in cells transfected with shALKBH5 or ALKBH5 (interaction not affected)
[2] = target: AlkB homolog 5 (ALKBH5) (human (endogenous in A549)) (UniProt Q6P6C2); experiment: as above

binding [1]	binding [2]	Substance
binds		YTHDF1 (from UniProt Q9BYJ9 1-559)
	binds	Human antigen R (HuR) (from UniProt Q15717 1-326)
